According to paper PMC8450094:
Numbering of substitutions follows the chain as printed. Construct, isoform or probe ends are uncertain for at least one entry. For part of these data: Weaker means in comparison with the reference protein, sequence or condition of that experiment. Where a protein sequence is shown, tags need not be part of it. For part of these data: The direction of at least one scale is not stated here.

Tests used:
Test in all cases: fluorescence polarisation
[1] = target: T1, SNM1B R301A (Homo sapiens) (UniProt Q9H816); settings: apparent, curves do not saturate; 5' phosphate on strand 1; 5' OH on strand 2; FP: 20 mM HEPES pH 7.5, 50 mM KCl, 0.5 mM TCEP, room temperature, 5 min, DNA 25 nM (Methods) or 50 nM (legends; 10 nM in Suppl. Fig. 14C); recombinant protein; residues 1-335; protein details: C-terminal His10-FLAG, TEV cleavage stated; label: 3' FITC on strand 1
T1 sequence (looked up): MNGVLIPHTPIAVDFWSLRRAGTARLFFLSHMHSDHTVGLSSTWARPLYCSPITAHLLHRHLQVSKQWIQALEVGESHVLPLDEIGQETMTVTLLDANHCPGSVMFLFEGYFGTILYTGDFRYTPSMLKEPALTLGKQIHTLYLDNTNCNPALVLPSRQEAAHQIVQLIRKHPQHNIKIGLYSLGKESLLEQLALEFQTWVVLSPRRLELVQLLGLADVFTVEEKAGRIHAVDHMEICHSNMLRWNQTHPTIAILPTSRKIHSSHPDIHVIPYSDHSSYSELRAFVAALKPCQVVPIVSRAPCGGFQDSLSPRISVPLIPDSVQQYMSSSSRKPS

[2] = target: T2, SNM1B H276A (Homo sapiens) (UniProt Q9H816); settings: highest enzyme concentration not tested; 5' phosphate on strand 1; 5' OH on strand 2; FP: 20 mM HEPES pH 7.5, 50 mM KCl, 0.5 mM TCEP, room temperature, 5 min, DNA 25 nM (Methods) or 50 nM (legends; 10 nM in Suppl. Fig. 14C); recombinant protein; residues 1-335; protein details: C-terminal His10-FLAG, TEV cleavage stated; label: 3' FITC on strand 1
T2 sequence (looked up): T1 sequence (looked up) with H276A, A301R

[3] = target: T3, SNM1B Y182A (Homo sapiens) (UniProt Q9H816); settings: apparent, curves do not saturate; 5' phosphate on strand 1; 5' OH on strand 2; FP: 20 mM HEPES pH 7.5, 50 mM KCl, 0.5 mM TCEP, room temperature, 5 min, DNA 25 nM (Methods) or 50 nM (legends; 10 nM in Suppl. Fig. 14C); recombinant protein; residues 1-335; protein details: C-terminal His10-FLAG, TEV cleavage stated; label: 3' FITC on strand 1
T3 sequence (looked up): T1 sequence (looked up) with Y182A, A301R

[4] = target: T4, SNM1B S183A (Homo sapiens) (UniProt Q9H816); settings: 5' phosphate on strand 1; 5' OH on strand 2; FP: 20 mM HEPES pH 7.5, 50 mM KCl, 0.5 mM TCEP, room temperature, 5 min, DNA 25 nM (Methods) or 50 nM (legends; 10 nM in Suppl. Fig. 14C); recombinant protein; residues 1-335; protein details: C-terminal His10-FLAG, TEV cleavage stated; label: 3' FITC on strand 1
T4 sequence (looked up): T1 sequence (looked up) with S183A, A301R

[5] = target: T5, SNM1B R259A (Homo sapiens) (UniProt Q9H816); settings: increased KDapp; 5' phosphate on strand 1; 5' OH on strand 2; FP: 20 mM HEPES pH 7.5, 50 mM KCl, 0.5 mM TCEP, room temperature, 5 min, DNA 25 nM (Methods) or 50 nM (legends; 10 nM in Suppl. Fig. 14C); recombinant protein; residues 1-335; protein details: C-terminal His10-FLAG, TEV cleavage stated; label: 3' FITC on strand 1
T5 sequence (looked up): T1 sequence (looked up) with R259A, A301R

[6] = target: T6, SNM1B K186A (Homo sapiens) (UniProt Q9H816); settings: apparent, curves do not saturate; 5' phosphate on strand 1; 5' OH on strand 2; FP: 20 mM HEPES pH 7.5, 50 mM KCl, 0.5 mM TCEP, room temperature, 5 min, DNA 25 nM (Methods) or 50 nM (legends; 10 nM in Suppl. Fig. 14C); recombinant protein; residues 1-335; protein details: C-terminal His10-FLAG, TEV cleavage stated; label: 3' FITC on strand 1
T6 sequence (looked up): T1 sequence (looked up) with K186A, A301R

ATAAATATTTTTTATTAATAATAGATCACCTTTCTTTCTCTTCTCCCCTT / ATTATTAATAAAAAATATTTAT [3' overhang DNA (oligo 20 / oligo 4)]
Kd [1]: 940 nM | binding result [2]: binds more weakly | Kd [3]: 1100 nM | binding signal (fold increase of KDapp vs WT) [4]: 3 | binding result [5]: binds more weakly | Kd [6]: 2730 nM
